Laboratory results: paper PMC9584938
Results are given in words; binding and its absence hold for the method and conditions named. Binding seen in cells or lysates may run through a third protein. Some binding calls cover weakened binding; strength is not graded here. For part of these data: Sequences can lack the tags named with a protein.

Sequences of proteins named here, by UniProt entry; tags and fusion partners are left off.
UniProt P21281: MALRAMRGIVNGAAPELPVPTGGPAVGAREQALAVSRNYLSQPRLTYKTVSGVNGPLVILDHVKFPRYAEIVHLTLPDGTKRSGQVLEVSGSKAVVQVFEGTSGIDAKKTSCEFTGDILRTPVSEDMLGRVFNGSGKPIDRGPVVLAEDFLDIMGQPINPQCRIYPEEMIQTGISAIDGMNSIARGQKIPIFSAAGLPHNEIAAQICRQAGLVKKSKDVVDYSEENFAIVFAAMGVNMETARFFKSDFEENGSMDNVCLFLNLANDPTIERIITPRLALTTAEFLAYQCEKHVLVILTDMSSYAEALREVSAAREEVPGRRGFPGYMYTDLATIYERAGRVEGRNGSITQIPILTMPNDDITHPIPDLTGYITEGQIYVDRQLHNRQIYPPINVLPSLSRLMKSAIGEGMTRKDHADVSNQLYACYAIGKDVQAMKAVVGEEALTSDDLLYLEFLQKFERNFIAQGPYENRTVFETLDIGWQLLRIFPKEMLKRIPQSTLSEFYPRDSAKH
UniProt P84022: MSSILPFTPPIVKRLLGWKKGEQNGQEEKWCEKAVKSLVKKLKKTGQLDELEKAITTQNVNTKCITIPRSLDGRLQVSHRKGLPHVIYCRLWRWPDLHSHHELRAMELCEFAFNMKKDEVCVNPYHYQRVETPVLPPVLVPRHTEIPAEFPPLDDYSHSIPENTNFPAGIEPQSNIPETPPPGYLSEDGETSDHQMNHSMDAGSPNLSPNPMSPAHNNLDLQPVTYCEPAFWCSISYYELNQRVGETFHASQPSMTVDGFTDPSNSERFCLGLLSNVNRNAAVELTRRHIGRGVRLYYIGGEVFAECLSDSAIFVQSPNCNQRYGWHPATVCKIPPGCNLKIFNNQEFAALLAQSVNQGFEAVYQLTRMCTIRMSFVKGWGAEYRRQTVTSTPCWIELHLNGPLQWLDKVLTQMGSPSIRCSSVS
UniProt Q9HAV0: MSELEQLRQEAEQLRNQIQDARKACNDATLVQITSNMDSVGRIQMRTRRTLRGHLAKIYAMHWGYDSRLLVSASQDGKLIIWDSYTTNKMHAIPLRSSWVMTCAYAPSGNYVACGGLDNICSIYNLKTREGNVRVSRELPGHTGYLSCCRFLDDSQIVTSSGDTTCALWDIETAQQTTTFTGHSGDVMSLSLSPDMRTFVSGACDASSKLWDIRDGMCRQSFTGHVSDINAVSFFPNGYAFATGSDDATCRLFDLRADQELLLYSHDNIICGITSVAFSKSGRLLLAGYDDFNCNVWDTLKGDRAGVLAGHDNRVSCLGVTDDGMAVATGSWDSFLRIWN

Tests used:
[1] = molecular target: T1, frizzled 9 (FZD9) (human (endogenous in HEK293)) (UniProt O00144); test: co-IP; HEK293 lysate (RIPA or 1% NP-40 lysis buffer), 1.6 mg protein with 3 µg antibody overnight at 4 °C, Protein A beads, western blot; control: empty beads
T1 sequence: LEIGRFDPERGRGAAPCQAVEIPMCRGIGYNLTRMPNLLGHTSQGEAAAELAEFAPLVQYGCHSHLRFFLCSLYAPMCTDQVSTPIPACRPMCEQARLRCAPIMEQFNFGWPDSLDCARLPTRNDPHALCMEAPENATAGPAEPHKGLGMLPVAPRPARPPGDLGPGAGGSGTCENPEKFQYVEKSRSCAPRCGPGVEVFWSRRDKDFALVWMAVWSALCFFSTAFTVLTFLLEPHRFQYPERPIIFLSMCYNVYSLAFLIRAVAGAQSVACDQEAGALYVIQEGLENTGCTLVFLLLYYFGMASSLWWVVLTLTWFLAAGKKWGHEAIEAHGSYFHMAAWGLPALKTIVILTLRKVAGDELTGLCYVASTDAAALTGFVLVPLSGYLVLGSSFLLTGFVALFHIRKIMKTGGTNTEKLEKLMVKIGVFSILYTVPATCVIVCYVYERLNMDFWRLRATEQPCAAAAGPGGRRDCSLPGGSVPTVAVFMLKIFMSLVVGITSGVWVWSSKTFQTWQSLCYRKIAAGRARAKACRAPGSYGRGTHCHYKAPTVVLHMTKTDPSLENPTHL

[2] = molecular target: FLOT1 (human (endogenous in HEK293)) (UniProt O75955); test: as above
full-length FLAG-FLOT2 = molecular target: T2, full-length FLAG-FLOT2 (UniProt Q14254); test: co-IP; FLAG-IP from HEK293 cells co-transfected with full-length FLAG-FLOT1 and FLAG-FLOT2 or with both Δ100 versions; detection of GNB4 by western blot
T2 sequence: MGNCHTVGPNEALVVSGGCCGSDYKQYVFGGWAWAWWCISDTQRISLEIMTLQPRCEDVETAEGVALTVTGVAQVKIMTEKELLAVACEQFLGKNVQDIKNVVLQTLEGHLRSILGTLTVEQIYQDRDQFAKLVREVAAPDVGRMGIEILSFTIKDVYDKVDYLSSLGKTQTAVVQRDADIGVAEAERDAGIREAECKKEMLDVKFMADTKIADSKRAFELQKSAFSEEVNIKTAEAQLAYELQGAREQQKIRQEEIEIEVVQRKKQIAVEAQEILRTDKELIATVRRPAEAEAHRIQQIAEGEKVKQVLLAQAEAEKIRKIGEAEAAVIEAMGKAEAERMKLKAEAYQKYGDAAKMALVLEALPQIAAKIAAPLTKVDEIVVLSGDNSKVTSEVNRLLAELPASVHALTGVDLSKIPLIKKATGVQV

[3] = molecular target: T3, FLAG-FLOT1 lacking amino acid residues 200–300 (Δ100) (UniProt O75955); test: as above
T3 sequence: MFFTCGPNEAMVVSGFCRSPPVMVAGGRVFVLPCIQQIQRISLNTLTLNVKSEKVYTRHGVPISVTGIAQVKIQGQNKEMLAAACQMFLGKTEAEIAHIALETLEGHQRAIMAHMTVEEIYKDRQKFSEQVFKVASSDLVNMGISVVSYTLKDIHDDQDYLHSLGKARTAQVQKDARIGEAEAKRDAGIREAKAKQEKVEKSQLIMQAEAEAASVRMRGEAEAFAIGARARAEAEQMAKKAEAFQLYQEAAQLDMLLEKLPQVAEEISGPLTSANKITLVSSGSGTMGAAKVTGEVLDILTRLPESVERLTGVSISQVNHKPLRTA

[4] = molecular target: T4, FLAG-FLOT2 lacking amino acid residues 200–300 (Δ100) (UniProt Q14254); test: as above
T4 sequence: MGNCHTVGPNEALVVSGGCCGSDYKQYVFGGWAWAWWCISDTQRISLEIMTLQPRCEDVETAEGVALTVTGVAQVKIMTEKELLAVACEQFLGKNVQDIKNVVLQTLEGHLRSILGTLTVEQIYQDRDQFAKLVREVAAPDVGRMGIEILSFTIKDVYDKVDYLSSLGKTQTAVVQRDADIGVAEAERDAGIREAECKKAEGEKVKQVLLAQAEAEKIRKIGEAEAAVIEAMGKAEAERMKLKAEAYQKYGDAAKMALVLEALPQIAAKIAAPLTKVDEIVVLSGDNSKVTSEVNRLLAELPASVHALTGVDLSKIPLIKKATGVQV

full-length FLAG-FLOT1 = full-length FLAG-FLOT1 (UniProt O75955); test: as above
[5] = molecular target: T5, FLOT2 (human (endogenous in HEK293)) (UniProt Q14254); test: co-IP; HEK293 lysate (RIPA or 1% NP-40 lysis buffer), 1.6 mg protein with 3 µg antibody overnight at 4 °C, Protein A beads, western blot; control: empty beads
T5 sequence: T2 sequence

[6] = molecular target: T5, FLOT2 (human (endogenous in HEK293)); test: cross-linking; XL-LC-MS/MS: lysosome-enriched fractions (SPIONs) of HEK293 cells, intact and disrupted, 1 mg/mL protein in isolation buffer, 0.25 mM DSSO, 30 min at room temperature; XlinkX, FDR 5 %

Row | Substance | binding [1] | binding [2] | binding (full-length FLAG-FLOT2) | binding [3] | binding [4] | binding (full-length FLAG-FLOT1) | binding [5] | binding [6]
1 | ATP6V1B2 (from UniProt P21281 1-511) | binds | – | – | – | – | – | – | –
2 | SMAD3 (from UniProt P84022 1-425) | – | binds | – | – | – | – | – | –
3 | guanine-nucleotide-binding protein subunit beta-4 (GNB4) (from UniProt Q9HAV0 1-340) | – | binds | binds | no binding | no binding | binds | binds | binds
